Source: PubChem BioAssay AID504749 (NCATS, 2011).

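Malaria parasite (P. falciparum) lines kept in red blood cells; parasite DNA is measured by SYBR Green fluorescence after lysis, 72 h after compound addition.
Each compound was titrated across a series from about 0.000037 to 29 µM.
The number is the fitted AC50, the concentration giving a half-maximal change in signal; a lower value means higher potency, whether the curve shows a decrease or an increase.
Calls follow the curve class and fit quality: every row here is inconclusive, covering signal-raising curves and weak, poorly fitted, partial or highest-dose-only inhibition curves.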

Values are in µM.
All entries here are filed as inconclusive.
Only part of the assay is shown, chiefly results filed as inconclusive.
A potency from a partial, single-point or poor curve is only a rough figure.
The first word of each remark tells which way the curve ran; it can be opposite to the aim of the assay.

For CNNCc1ccc(C(=O)NC(C)C)cc1 [CP191] the result was potency 63.1 µM (inhibitor, partial curve, poor fit). CNNCc1ccc(C(=O)NC(C)C)cc1 [DIV14] read potency 4.256 µM (inhibitor, partial curve, poor fit). Result for CNNCc1ccc(C(=O)NC(C)C)cc1 [7G8] was potency 12.59 µM (inhibitor, partial curve). Result for CNNCc1ccc(C(=O)NC(C)C)cc1 [CP201] was potency 0.0005 µM (activator). CNNCc1ccc(C(=O)NC(C)C)cc1 [DIV17] read potency 16.94 µM (inhibitor, partial curve, poor fit). For O=C(O)c1cc(N=Nc2ccc(O)c(C(=O)O)c2)ccc1O [CP286] the result was potency 14.13 µM (inhibitor, single point). O=C(O)c1cc(N=Nc2ccc(O)c(C(=O)O)c2)ccc1O [DIV14] read potency 10.69 µM (inhibitor, single point).

For CCCCCCCCCCCCCCCCCC(=O)OC[C@@H](O)[C@H]1OC[C@H](O)[C@H]1O [DIV30] the result was potency 16.94 µM (inhibitor, single point). Result for CCCCCCCCCCCCCCCCCC(=O)OC[C@@H](O)[C@H]1OC[C@H](O)[C@H]1O [DIV14] was potency 4.256 µM (activator, partial curve, poor fit). CC(=O)[C@H]1CC[C@H]2[C@@H]3C=CC4=CC(=O)CC[C@@]4(C)[C@H]3CC[C@]12C [3D7] gave potency 1.122 µM (inhibitor, partial curve, poor fit). CCN(CC)CCO[C@H]1CC[C@@]2(C)C(=CC[C@@H]3[C@H]2CC[C@]2(C)C(=O)CC[C@H]32)C1 [DIV17] gave potency 19.01 µM (inhibitor, partial curve, poor fit). Result for CCN(CC)CCO[C@H]1CC[C@@]2(C)C(=CC[C@@H]3[C@H]2CC[C@]2(C)C(=O)CC[C@H]32)C1 [ICS] was potency 12.59 µM (inhibitor, partial curve, poor fit). CCN(CC)CCO[C@H]1CC[C@@]2(C)C(=CC[C@@H]3[C@H]2CC[C@]2(C)C(=O)CC[C@H]32)C1 [W2] read potency 0.0043 µM (inhibitor, full curve, poor fit). With CCN(CC)CCO[C@H]1CC[C@@]2(C)C(=CC[C@@H]3[C@H]2CC[C@]2(C)C(=O)CC[C@H]32)C1 [7G8] the assay gave potency 7.943 µM (inhibitor, partial curve).

With CCN(CC)CCO[C@H]1CC[C@@]2(C)C(=CC[C@@H]3[C@H]2CC[C@]2(C)C(=O)CC[C@H]32)C1 [CP211] the assay gave potency 0.019 µM (inhibitor, full curve, poor fit). CCN(CC)CCO[C@H]1CC[C@@]2(C)C(=CC[C@@H]3[C@H]2CC[C@]2(C)C(=O)CC[C@H]32)C1 [CP250] read potency 3.981 µM (inhibitor, single point). O=C(Nc1ccc(C(=O)O)c(O)c1)c1ccccc1 [P93_24] read potency 19.95 µM (inhibitor, single point). Result for O=C(Nc1ccc(C(=O)O)c(O)c1)c1ccccc1 [DIV17] was potency 7.569 µM (inhibitor, partial curve, poor fit). With NCC[C@H](O)C(=O)N[C@H]1C[C@@H](N)[C@@H](O[C@H]2O[C@@H](CN)[C@@H](O)[C@@H](O)[C@@H]2N)[C@@H](O[C@H]2O[C@@H](CO)[C@@H](O)[C@@H]2O)[C@@H]1O [TAB113] the assay gave potency 1.259 µM (inhibitor, single point). With OC(O)C(Cl)(Cl)Cl [CP265] the assay gave potency 3.981 µM (inhibitor, single point). For OC(O)C(Cl)(Cl)Cl [CP297] the result was potency 0.3793 µM (inhibitor, full curve, poor fit).

For OC(O)C(Cl)(Cl)Cl [CP191] the result was potency 3.981 µM (inhibitor, single point). OC(O)C(Cl)(Cl)Cl [CP266] gave potency 0.0169 µM (inhibitor, full curve, poor fit). Cc1cc(-n2nc3ccc(Cl)cc3n2)c(O)c(C(C)(C)C)c1 [AA1029] read potency 3.162 µM (inhibitor, single point).

Some entries from above, unchanged:

compound,condition,potency (µM),remark
CCN(CC)CCO[C@H]1CC[C@@]2(C)C(=CC[C@@H]3[C@H]2CC[C@]2(C)C(=O)CC[C@H]32)C1,CP250,3.981,"inhibitor, single point"
CCN(CC)CCO[C@H]1CC[C@@]2(C)C(=CC[C@@H]3[C@H]2CC[C@]2(C)C(=O)CC[C@H]32)C1,ICS,12.59,"inhibitor, partial curve, poor fit"
O=C(O)c1cc(N=Nc2ccc(O)c(C(=O)O)c2)ccc1O,DIV14,10.69,"inhibitor, single point"